These results are taken from paper doi:10.1101/2020.08.16.252973.

The chains behind the UniProt entries cited, without tags or fusion partners.
UniProt Q8IUC6: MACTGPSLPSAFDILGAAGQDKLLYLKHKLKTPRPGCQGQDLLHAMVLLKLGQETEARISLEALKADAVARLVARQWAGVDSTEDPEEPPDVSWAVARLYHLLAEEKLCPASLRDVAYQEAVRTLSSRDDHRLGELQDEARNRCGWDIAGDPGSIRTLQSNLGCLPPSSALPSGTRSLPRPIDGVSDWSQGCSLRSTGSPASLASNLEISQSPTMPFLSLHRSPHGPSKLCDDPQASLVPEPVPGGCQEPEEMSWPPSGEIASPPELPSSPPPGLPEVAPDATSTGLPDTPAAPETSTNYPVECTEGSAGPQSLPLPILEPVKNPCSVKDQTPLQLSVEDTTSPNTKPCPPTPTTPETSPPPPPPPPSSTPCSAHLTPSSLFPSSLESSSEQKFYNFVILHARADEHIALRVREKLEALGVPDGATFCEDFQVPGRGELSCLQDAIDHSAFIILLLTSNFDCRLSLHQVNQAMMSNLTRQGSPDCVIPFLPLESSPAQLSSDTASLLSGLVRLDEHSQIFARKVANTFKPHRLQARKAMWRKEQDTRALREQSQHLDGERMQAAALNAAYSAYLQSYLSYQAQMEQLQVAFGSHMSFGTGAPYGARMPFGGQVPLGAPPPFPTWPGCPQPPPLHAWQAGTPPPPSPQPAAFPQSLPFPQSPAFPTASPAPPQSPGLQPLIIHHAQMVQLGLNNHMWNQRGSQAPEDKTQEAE
UniProt Q86WV6: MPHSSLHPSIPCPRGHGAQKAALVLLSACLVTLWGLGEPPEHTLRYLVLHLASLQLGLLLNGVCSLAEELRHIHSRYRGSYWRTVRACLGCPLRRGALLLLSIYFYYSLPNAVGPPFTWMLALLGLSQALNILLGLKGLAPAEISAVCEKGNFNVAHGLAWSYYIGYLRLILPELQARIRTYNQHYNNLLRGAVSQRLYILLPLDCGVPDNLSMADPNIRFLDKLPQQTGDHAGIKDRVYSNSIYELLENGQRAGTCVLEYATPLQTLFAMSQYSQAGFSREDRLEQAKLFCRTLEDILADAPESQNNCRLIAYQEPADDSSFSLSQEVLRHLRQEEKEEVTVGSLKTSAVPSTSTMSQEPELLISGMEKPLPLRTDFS
UniProt P0DTD2: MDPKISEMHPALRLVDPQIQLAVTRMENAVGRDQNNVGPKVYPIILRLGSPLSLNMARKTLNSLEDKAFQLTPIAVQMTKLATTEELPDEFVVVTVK

These are yes or no findings as the source states them, for the method shown. Binding seen in cells or lysates may run through a third protein. Some entries that bind do so weakly or less than the wild type.

Assay [1] addresses TIR-domain-containing adapter-inducing interferon-β (UniProt Q8IUC6). Description: co-IP.
The next assay deals with stimulator of IFN genes (UniProt Q86WV6). Description: co-IP.

“SARS-CoV-2 ORF9b (from UniProt P0DTD2 1-97)”: the binding result (in assay [1]; with stimulator of IFN genes) was “binds” in each case.
